From PubChem BioAssay (NCATS)
Values joined by “and” are separate entries in the source; they are usually repeats but may differ in a detail not shown here. Equal values may be shown once. The shares of active, inactive and inconclusive entries below differ from those in the screen. A potency beside an inconclusive call is a rough fit, not a confirmed value. Active and inactive are the calls of the source. Unless noted, calls come from the whole dose curve; as a rule, active = well fitted curve in the direction sought with a large enough effect; inconclusive = small, poorly fitted or top-dose-only effect, or another doubt; inactive = no such curve, though single readings can be large; an effect the other way counts as inactive or inconclusive.

Key:
[1] = Quantitative High-Throughput drug screen in 47 multiple myeloma cell lines against the NCATS MIPE library collection: UTMC2_PLB cell viability assay (AID 1919868); settings: CellTiter-Glo ATP luminescence, 48 h; viability (% of DMSO control): at 45.8 µM (top of the series); note: nearly all actives have a fitted effect of over 55% in size;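 for viability (% of DMSO control): 100% = DMSO-only wells and 0% = media-only wells without cells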
Procedure, shortened: (§1)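 500 cells/well; MIPE 4.0 drugs pin-transferred; 48 h, 37C, 5% CO2. CellTiter-Glo, 5 min RT, luminescence. Controls: DMSO 100%, media 0%.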

[2] = Quantitative High-Throughput drug screen in 47 multiple myeloma cell lines against the NCATS MIPE library collection: PCM6_Riken cell viability assay (AID 1919870); settings: CellTiter-Glo ATP, 48 h; viability (% of control): at 45.8 µM (top of the series); note: nearly all actives have a fitted effect of over 30% in size
Procedure, shortened: as §1

[3] = Quantitative High-Throughput drug screen in 47 multiple myeloma cell lines against the NCATS MIPE library collection: OPM2_DSMZ cell viability assay (AID 1919872); note: nearly all actives have a fitted effect of over 30% in size
Procedure, shortened: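 Steps: seed 500 cells per well; pin-transfer MIPE 4.0 library; incubate 48 h at 37C, 5% CO2, humidified; add CellTiter-Glo, 5 min room temperature; read luminescence.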

[4] = Quantitative High-Throughput drug screen in 47 multiple myeloma cell lines against the NCATS MIPE library collection: KMS11_JCRBsus cell viability assay (AID 1919873); note: nearly all actives have a fitted effect of over 50% in size;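 for viability (% of control): 100% = DMSO-only wells and 0% = media-only wells without cells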
Procedure, shortened: as §1

CRL-7250 = normal cell line; test: Cytotoxic Profiling of Annotated Libraries Using Quantitative High-Throughput Screening (AID 1296008); settings: Five cell lines viability, CellTiter-Glo ATP luminescence, 48-72 h; max response: active compounds read low; note: nearly all actives have a fitted effect of over 60% in size; for max response: % is set by controls: 0 for no effect and ±100 for the full control effect
Procedure, shortened: (§2)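 Cells exposed to compounds for 48 or 72 hr at 37 degrees Celsius. Viability read as ATP-coupled luminescence with CellTiter-Glo after 10 min at room temperature.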

[5] = Quantitative High-Throughput drug screen in 47 multiple myeloma cell lines against the NCATS MIPE library collection: RPMI8226_ATCC cell viability assay (AID 1919871); note: nearly all actives have a fitted effect of over 30% in size
Procedure, shortened: as §1

[6] = Quantitative High-Throughput drug screen in 47 multiple myeloma cell lines against the NCATS MIPE library collection: KMS28BM_JCRB cell viability assay (AID 1919874); note: nearly all actives have a fitted effect of over 35% in size
Procedure, shortened: as §1

[7] = qHTS for identification of novel therapeutic agents for treatment of microphthalmiaassociated transcription factor (MiT) renal cell carcinoma (RCC) (AID 1963991; calls by dose curve); settings: TFE3-RCC UOK109 viability, CellTiter-Glo, 48 h; active = Z-AUC below -0.8 in all three lines
Procedure, shortened: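 Curves over 11 concentrations were fitted to CellTiter-Glo luminescence, scaled between empty wells (0%) and DMSO (100%) viability. Cells were UOK109, UOK124 and UOK145 TFE3-fusion RCC lines at 500/well, exposed 48 hours at 37 C.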

HaCat = test: Cytotoxic Profiling of Annotated Libraries Using Quantitative High-Throughput Screening (AID 1296008); settings: Five cell lines viability, CellTiter-Glo ATP luminescence, 48-72 h; max response: active compounds read low; note: nearly all actives have a fitted effect of over 60% in size; for max response: % is set by controls: 0 for no effect and ±100 for the full control effect
Procedure, shortened: as §2

NIH3T3 = test: as above; settings: Five cell lines viability, CellTiter-Glo ATP luminescence, 48-72 h; max response: active compounds read low
Procedure, shortened: as §2

HEK293 = test: as above; settings: Five cell lines viability, CellTiter-Glo ATP luminescence, 48-72 h; max response: active compounds read low
Procedure, shortened: as §2

[8] = Quantitative High-Throughput drug screen in 47 multiple myeloma cell lines against the NCATS MIPE library collection: PE2_PLB cell viability assay (AID 1919869); note: nearly all actives have a fitted effect of over 35% in size;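 for viability (% of control): 100% = DMSO-only wells and 0% = cell-free media-only wells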
Procedure, shortened: as §1

KB-3-1 = test: Cytotoxic Profiling of Annotated Libraries Using Quantitative High-Throughput Screening (AID 1296008); settings: Five cell lines viability, CellTiter-Glo ATP luminescence, 48-72 h; max response: active compounds read low; note: nearly all actives have a fitted effect of over 60% in size; for max response: % is set by controls: 0 for no effect and ±100 for the full control effect
Procedure, shortened: as §2
Potency is the fitted concentration of half-maximal effect.

COc1ncnc(NS(=O)(=O)c2ccc(N)cc2)c1OC
inconclusive: Potency [3] 132 nM [rising, full curve, poor fit] | Potency (CRL-7250) 33500 nM [inhibitor, single point]
inactive: Potency [1] | Potency [2] | Potency [4]

COCCNCCCn1c(C(=O)CF)c(-c2ccc(C)cc2)c2c(N)ncnc21
inconclusive: Potency [1] 1.2 nM [cytotoxic, full curve, poor fit] | Potency [5] 2.3 nM [cytotoxic, full curve, poor fit] | Potency [6] 16600 nM [cytotoxic, partial curve, poor fit] | Potency [7] 16600 nM [falling, partial curve] | Potency (CRL-7250) 33200 nM [inhibitor, single point] | Potency (NIH3T3) 37200 nM [inhibitor, single point]
inactive: Potency [3] | max response (HaCat) -0.681%

CN(N=O)C(=O)N[C@H]1C(O)OC(CO)[C@@H](O)[C@H]1O (stereo partly drawn)
inactive: Potency [2] | Potency [5] | max response (CRL-7250) -3.47%
inconclusive: Potency [1] 2350 nM [cytotoxic, full curve, poor fit] | Potency [3] 18.7 nM [rising, full curve, poor fit]

C[C@H]1C[C@@H]2[C@@H]([C@@H](O)C[C@@]3(C)[C@H]2CC[C@]3(O)C(=O)CO)[C@@]2(C)C=CC(=O)C=C12
inconclusive: Potency [1] 2640 nM [cytotoxic, full curve, poor fit] | Potency [2] 66.2 nM [cytotoxic, full curve, poor fit] | Potency [5] 33.2 nM [cytotoxic, full curve, poor fit]
inactive: Potency [3] | max response (CRL-7250) -0.811%

O=c1[nH]c(=O)n([C@H]2C[C@@H](O)[C@@H](CO)O2)cc1F
inconclusive: Potency [5] 20900 nM [cytotoxic, partial curve] | Potency [3] 20900 nM [cytotoxic, partial curve] | Potency [7] 4690 nM [falling, full curve] | Potency (HaCat) 33.2 nM [inhibitor, full curve]
active: Potency [6] 20900 nM | Potency (CRL-7250) 18700 nM | Potency (NIH3T3) 18.7 nM

O=C(O)CSCC(=O)NC1CCSC1=O (stereo not drawn)
inconclusive: Potency [1] 20.9 nM [rising, full curve, poor fit] | Potency [3] 2090 nM [rising, partial curve, poor fit]
inactive: Potency [5] | max response (HEK293) -6.58% | outcome (HEK293)

CCCc1cc(=O)[nH]c(=S)[nH]1
inactive: Potency [5] | Potency [4]
inconclusive: Potency [1] 1 nM | Potency [6] 33200 nM [cytotoxic, single point] | Potency [7] 37200 nM [falling, partial curve, poor fit] | Potency (HEK293) 4180 nM [inhibitor, full curve, poor fit] | Potency (HaCat) 211 nM [inhibitor, full curve] and 13.2 µM [inhibitor, partial curve, poor fit] | Potency (NIH3T3) 1480 nM [inhibitor, full curve]

C1Cc2[nH]nc(-c3nn[nH]n3)c2C1
inactive: Potency [5] | Potency [3] | Potency [6] | max response (HEK293) 2.99% | outcome (HEK293)
inconclusive: Potency [1] 743 nM [rising, full curve, poor fit] | Potency [4] 1.2 nM [rising, full curve, poor fit]

CS(=O)(=O)c1ccc(C2=C(c3ccccc3)C(=O)OC2)cc1
inconclusive: Potency [8] 1 nM [cytotoxic] | Potency (HEK293) 29100 nM [inhibitor, single point]
inactive: Potency [1] | Potency [2] | Potency [4] | Potency [6] | outcome (HEK293) | max response (KB-3-1) 20.7% and -2.3% and -12.9%

CCN(CCO)CCCC(C)Nc1ccnc2cc(Cl)ccc12 (stereo not drawn)
inactive: Potency [5] | Potency [4] | max response (HEK293) 2.34% | outcome (HEK293) | max response (HaCat) -3.55% and -14.9% | outcome (HaCat) | max response (NIH3T3) -2.56% | outcome (NIH3T3)
inconclusive: Potency [1] 10500 nM [rising, single point] | Potency [8] 332 nM [rising, partial curve] | Potency (HEK293) 4180 nM [inhibitor, full curve, poor fit] | Potency (NIH3T3) 1660 nM [inhibitor, full curve]

N#CNC(=NCCCCCCOc1ccc(Cl)cc1)Nc1ccncc1
inactive: Potency [1] | max response (HEK293) -111%
active: Potency [5] 41.8 nM | Potency [3] 14.8 nM | Potency (HaCat) 20.9 nM | Potency (KB-3-1) 3.7 nM | Potency (NIH3T3) 296 nM
inconclusive: Potency [8] 4.7 nM [cytotoxic, full curve]

COc1cc2nccc(Oc3ccc(NC(=O)Nc4ccc(F)cc4F)c(F)c3)c2cc1OC
inconclusive: Potency [8] 187 nM [cytotoxic, full curve, poor fit] | Potency [5] 2640 nM [cytotoxic, partial curve, poor fit] | Potency (HEK293) 8330 nM [inhibitor, single point] | Potency (HaCat) 11800 nM [inhibitor, single point] | Potency (KB-3-1) 37200 nM [inhibitor, single point] | Potency (NIH3T3) 7430 nM [inhibitor, full curve]
active: Potency [6] 1050 nM
inactive: Potency [1]

Three structures already listed, ordered by heavy-atom count, low to high:
O=c1[nH]c(=O)n([C@H]2C[C@@H](O)[C@@H](CO)O2)cc1F
inconclusive: Potency [5] 20900 nM [cytotoxic, partial curve] | Potency [3] 20900 nM [cytotoxic, partial curve] | Potency [7] 4690 nM [falling, full curve] | Potency (HaCat) 33.2 nM [inhibitor, full curve]
active: Potency [6] 20900 nM | Potency (CRL-7250) 18700 nM | Potency (NIH3T3) 18.7 nM

COc1ncnc(NS(=O)(=O)c2ccc(N)cc2)c1OC
inconclusive: Potency [3] 132 nM [rising, full curve, poor fit] | Potency (CRL-7250) 33500 nM [inhibitor, single point]
inactive: Potency [1] | Potency [2] | Potency [4]

N#CNC(=NCCCCCCOc1ccc(Cl)cc1)Nc1ccncc1
inactive: Potency [1] | max response (HEK293) -111%
active: Potency [5] 41.8 nM | Potency [3] 14.8 nM | Potency (HaCat) 20.9 nM | Potency (KB-3-1) 3.7 nM | Potency (NIH3T3) 296 nM
inconclusive: Potency [8] 4.7 nM [cytotoxic, full curve]

Next part.

Cc1ccc(C(C)(O)c2nc3ccccc3s2)c(C)c1 (stereo not drawn)
inactive: Potency [8] | Potency [3]
inconclusive: Potency [1] 7430 nM [rising, partial curve, poor fit] | Potency [6] 372 nM [rising, full curve] | Potency (HEK293) 3720 nM [inhibitor, full curve, poor fit] | Potency (HaCat) 37200 nM [inhibitor, single point] | Potency (NIH3T3) 3320 nM [inhibitor, full curve]
